## Cleaved PARP in drug-treated melanoma cells

Source: doi:10.1371/journal.pone.0140310, primary screening data, rounded.

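Human melanoma cell lines in 1,536-well plates were treated with two drugs together for 72 h, then fixed, stained and imaged. The read-out is the fraction of cleaved-PARP-positive nuclei, in % of that fraction in the DMSO control; 200 means twice the control level of this apoptosis marker. Every drug was used at one fixed concentration, the higher of two screened. The file gives one value for each pair and line, without errors, so small differences may be noise. Basal and induced levels differ widely between cell lines.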
This is part of the screen, not chosen by result.

Drugs:
GW441756 (2 µM): Cn1cc(/C=C2\C(=O)Nc3cccnc32)c2ccccc21
nilotinib (1 µM): Cc1cn(-c2cc(NC(=O)c3ccc(C)c(Nc4nccc(-c5cccnc5)n4)c3)cc(C(F)(F)F)c2)cn1
vismodegib (5 µM): CS(=O)(=O)c1ccc(C(=O)Nc2ccc(Cl)c(-c3ccccn3)c2)c(Cl)c1
lestaurtinib (0.02 µM): C[C@]12O[C@H](C[C@]1(O)CO)n1c3ccccc3c3c4c(c5c6ccccc6n2c5c31)CNC4=O
sunitinib (2 µM): CCN(CC)CCNC(=O)c1c(C)[nH]c(/C=C2\C(=O)Nc3ccc(F)cc32)c1C
crizotinib (1 µM): C[C@@H](Oc1cc(-c2cnn(C3CCNCC3)c2)cnc1N)c1c(Cl)ccc(F)c1Cl
A-769662 (10 µM): N#Cc1c(O)c2c(-c3ccc(-c4ccccc4O)cc3)csc2[nH]c1=O
nutlin-3 (0.5 µM): COc1ccc(C2=N[C@@H](c3ccc(Cl)cc3)[C@@H](c3ccc(Cl)cc3)N2C(=O)N2CCNC(=O)C2)c(OC(C)C)c1
FH535 (5 µM): Cc1cc([N+](=O)[O-])ccc1NS(=O)(=O)c1cc(Cl)ccc1Cl
BI-78D3 (1 µM): O=c1[nH]nc(Sc2ncc([N+](=O)[O-])s2)n1-c1ccc2c(c1)OCCO2

Pair | RVH-421 | SK-MEL-30 | SK-MEL-28 | COLO 829 | WM3619 | MeWo | UACC-62 | UACC-257 | COLO 800 | A2058 | MEL-HO | G-361
nilotinib + crizotinib | 235 | 125 | 177 | 123 | 84.4 | 87.0 | 141 | 136 | 123 | 176 | 77.5 | 288
FH535 + nilotinib | 76.3 | 55.5 | 166 | 94.0 | 115 | 26.7 | 98.5 | 106 | 129 | 90.4 | 63.8 | 129
BI-78D3 + lestaurtinib | 57.4 | 220 | 139 | 131 | 117 | 123 | 120 | 36.2 | 80.8 | 85.4 | 45.7 | 87.4
vismodegib + GW441756 | 63.6 | 74.7 | 63.1 | 127 | 63.2 | 86.5 | 79.0 | 33.0 | 24.0 | 89.9 | 183 | 152
sunitinib + A-769662 | 61.6 | 133 | 226 | 129 | 114 | 212 | 118 | 28.8 | 139 | 279 | 75.7 | 37.0
lestaurtinib + sunitinib | 60.0 | 240 | 34.3 | 152 | 176 | 118 | 188 | 129 | 276 | 287 | 158 | 193
FH535 + vismodegib | 109 | 88.2 | 168 | 71.5 | 109 | 101 | 131 | 638 | 160 | 78.7 | 270 | 345
nutlin-3 + sunitinib | 120 | 175 | 88.4 | 82.1 | 113 | 70.0 | 270 | 30.7 | 138 | 273 | 35.8 | 87.2
nilotinib + A-769662 | 200 | 50.5 | 71.3 | 120 | 115 | 117 | 188 | 27.5 | 104 | 82.0 | 83.1 | 158
BI-78D3 + crizotinib | 115 | 57.7 | 83.3 | 153 | 194 | 75.3 | 117 | 43.6 | 99.7 | 83.0 | 93.0 | 99.4
nilotinib + GW441756 | 396 | 103 | 54.1 | 58.5 | 111 | 83.3 | 287 | 32.7 | 146 | 97.0 | 119 | 130
nilotinib + nutlin-3 | 262 | 138 | 83.3 | 103 | 94.9 | 103 | 242 | 90.3 | 37.6 | 138 | 47.7 | 255
FH535 + BI-78D3 | 63.9 | 127 | 92.3 | 218 | 116 | 102 | 215 | 288 | 95.1 | 143 | 68.1 | 459
nutlin-3 + BI-78D3 | 61.2 | 110 | 76.3 | 178 | 119 | 64.9 | 177 | 53.1 | 280 | 73.1 | 68.1 | 193
A-769662 + crizotinib | 194 | 117 | 40.1 | 65.6 | 98.2 | 184 | 157 | 61.0 | 146 | 124 | 39.1 | 52.5
GW441756 + sunitinib | 111 | 247 | 91.1 | 38.2 | 132 | 518 | 148 | 97.5 | 95.3 | 219 | 165 | 162
nutlin-3 + GW441756 | 47.1 | 40.7 | 59.8 | 106 | 81.2 | 58.2 | 149 | 79.9 | 88.3 | 98.8 | 47.6 | 114
vismodegib + nutlin-3 | 82.0 | 60.4 | 187 | 241 | 90.0 | 70.0 | 180 | 66.1 | 56.6 | 101 | 188 | 94.1
vismodegib + A-769662 | 125 | 81.0 | 122 | 66.9 | 76.3 | 69.3 | 107 | 24.5 | 110 | 66.7 | 160 | 110
A-769662 + GW441756 | 163 | 108 | 64.1 | 58.5 | 113 | 66.4 | 213 | 26.5 | 55.3 | 92.3 | 89.4 | 167
FH535 + crizotinib | 257 | 133 | 70.6 | 104 | 110 | 31.9 | 148 | 168 | 50.9 | 120 | 301 | 482
vismodegib + crizotinib | 127 | 99.0 | 129 | 159 | 78.6 | 97.6 | 52.0 | 56.8 | 65.4 | 167 | 142 | 119
vismodegib + lestaurtinib | 45.8 | 116 | 70.2 | 58.0 | 97.5 | 62.3 | 157 | 55.3 | 23.7 | 95.3 | 96.7 | 130
nilotinib + BI-78D3 | 170 | 105 | 136 | 87.0 | 245 | 98.4 | 92.7 | 78.7 | 105 | 78.1 | 72.4 | 179
nutlin-3 + FH535 | 70.0 | 64.6 | 369 | 176 | 126 | 90.5 | 88.4 | 174 | 103 | 79.3 | 312 | 361
sunitinib + crizotinib | 66.7 | 333 | 158 | 161 | 173 | 140 | 182 | 45.2 | 234 | 329 | 163 | 146
lestaurtinib + FH535 | 236 | 98.0 | 149 | 143 | 110 | 111 | 235 | 35.2 | 71.4 | 166 | 344 | 470

2 of the entries, repeated:

{"pair": "vismodegib + GW441756", "RVH-421": 63.6, "SK-MEL-30": 74.7, "SK-MEL-28": 63.1, "COLO 829": 127, "WM3619": 63.2, "MeWo": 86.5, "UACC-62": 79.0, "UACC-257": 33.0, "COLO 800": 24.0, "A2058": 89.9, "MEL-HO": 183, "G-361": 152}
{"pair": "nutlin-3 + BI-78D3", "RVH-421": 61.2, "SK-MEL-30": 110, "SK-MEL-28": 76.3, "COLO 829": 178, "WM3619": 119, "MeWo": 64.9, "UACC-62": 177, "UACC-257": 53.1, "COLO 800": 280, "A2058": 73.1, "MEL-HO": 68.1, "G-361": 193}